Test [1] has as its target T1, UFD-2 consensus sequence … (C. elegans).
T1 sequence (peptide): EAKAELEEE
The test is described as follows: peptide or protein array; PEPperPRINT microarrays of UFD-2 7- and 13-aa peptides (overlaps 6 and 12 aa); 6xHis::SUMO::CHN-1 incubated 16 h at 4°C; detected with anti-6xHis DyLight680; His::SUMO alone as control; both purified.

Test [2] deals with T2, UFD-2 consensus sequence EEYDDVPE (C. elegans).
T2 sequence (peptide): EEYDDVPE
The description is as above.

Test [3] concerns the target T3, UFD-2 (C. elegans) (UniProt Q09349).
T3 sequence: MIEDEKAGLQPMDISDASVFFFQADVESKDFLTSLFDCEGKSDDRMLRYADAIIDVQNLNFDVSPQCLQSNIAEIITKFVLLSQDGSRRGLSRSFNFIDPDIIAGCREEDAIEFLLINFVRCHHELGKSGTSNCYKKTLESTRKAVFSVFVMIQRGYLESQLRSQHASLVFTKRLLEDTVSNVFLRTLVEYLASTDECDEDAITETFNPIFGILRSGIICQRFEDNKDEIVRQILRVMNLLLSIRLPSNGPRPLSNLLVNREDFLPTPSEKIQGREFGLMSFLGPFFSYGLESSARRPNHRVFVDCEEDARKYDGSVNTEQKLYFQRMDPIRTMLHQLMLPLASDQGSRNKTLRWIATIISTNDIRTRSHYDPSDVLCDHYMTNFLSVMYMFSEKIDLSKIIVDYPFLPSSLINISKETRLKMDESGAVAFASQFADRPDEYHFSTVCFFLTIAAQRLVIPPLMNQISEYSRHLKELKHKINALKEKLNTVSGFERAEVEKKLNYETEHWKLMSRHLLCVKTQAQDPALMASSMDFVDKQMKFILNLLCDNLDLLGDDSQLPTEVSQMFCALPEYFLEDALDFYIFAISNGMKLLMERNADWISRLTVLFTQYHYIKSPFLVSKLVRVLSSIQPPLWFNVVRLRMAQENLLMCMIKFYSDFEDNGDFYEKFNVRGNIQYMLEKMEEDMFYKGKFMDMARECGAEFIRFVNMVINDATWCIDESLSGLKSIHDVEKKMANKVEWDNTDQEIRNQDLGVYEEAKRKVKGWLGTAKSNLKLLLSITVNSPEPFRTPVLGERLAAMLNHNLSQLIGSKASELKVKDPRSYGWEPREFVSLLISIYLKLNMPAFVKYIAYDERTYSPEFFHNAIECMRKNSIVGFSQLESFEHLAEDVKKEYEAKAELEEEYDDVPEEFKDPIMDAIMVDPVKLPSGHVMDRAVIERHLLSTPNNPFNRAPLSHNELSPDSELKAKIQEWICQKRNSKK
The experiment in a line: ELISA; competition: CHN-1 on immobilised UFD-2, titrated with increasing concentrations of HSP-1 or DAF-21; CHN-1 signal read; both purified. (An ELISA detects its analyte on a solid surface through an enzyme-linked reagent.)

The target in test [4] is T4, 6xHis::UFD-2 (C. elegans) (UniProt Q09349).
T4 sequence: T3 sequence
The experiment in a line: HDX-MS; CHN-1 (3 mg/ml) alone or mixed 1:1 with His-tagged UFD-2 (2 mg/ml), 25°C 30 min; exchange 10 s, 1 min, 5 min, 25 min, 2 h in 10 mM HEPES, 150 mM NaCl, D2O, pH 8.0, room temperature; both purified.

Test [5] addresses T3, UFD-2 (C. elegans). The test is described as follows: ELISA; UFD-2, His-tagged DAF-21 or His-tagged HSP-1 immobilised at 2 μg/ml; increasing CHN-1 concentrations, 1 h at 16°C; detected with anti-CHN-1; both purified.

These are yes or no findings as the source states them, for the method shown. Binding can be weak; no strength is given. For some assays here: Sequences can lack the tags named with a protein.

For “6xHis::SUMO::CHN-1 (C. elegans) (enzyme)”, the binding entry in test [1] and in test [2] was “binds” throughout.
On to CHN-1 (C. elegans) (enzyme), for which the binding entry (with UFD-2 (C. elegans) [3]; in test [4]; with UFD-2 (C. elegans) [5]) was “binds” throughout.

For the origin of these results see paper PMC9340540.
